Common to all, as to assay: co-IP
For assay [1], the target named is fibronectin (FN1), endogenous (human (endogenous in RWPE1, LNCaP, C4-2B)) (UniProt P02751).
In assay [2] the target is cMYC, endogenous (human (endogenous in RWPE1, LNCaP, C4-2B)) (UniProt P01106).
Assay [3] concerns the target fibronectin (FN1), endogenous (human (endogenous in RWPE1, LNCaP, C4-2B)) (UniProt P02751). The source holds these as a separate data set.
Assay [4] has as its target androgen receptor (AR), endogenous, isoforms not told apart (human (endogenous in RWPE1, LNCaP, C4-2B)) (UniProt P10275).
Assay [5] shares this target. This is another data set of the same source.

Amino acid sequences for entries named in this document (tags omitted). A change or cut given only in a name is not applied to a line headed by its entry. Residues count along the entry.
UniProt P02751, residues 32-2477: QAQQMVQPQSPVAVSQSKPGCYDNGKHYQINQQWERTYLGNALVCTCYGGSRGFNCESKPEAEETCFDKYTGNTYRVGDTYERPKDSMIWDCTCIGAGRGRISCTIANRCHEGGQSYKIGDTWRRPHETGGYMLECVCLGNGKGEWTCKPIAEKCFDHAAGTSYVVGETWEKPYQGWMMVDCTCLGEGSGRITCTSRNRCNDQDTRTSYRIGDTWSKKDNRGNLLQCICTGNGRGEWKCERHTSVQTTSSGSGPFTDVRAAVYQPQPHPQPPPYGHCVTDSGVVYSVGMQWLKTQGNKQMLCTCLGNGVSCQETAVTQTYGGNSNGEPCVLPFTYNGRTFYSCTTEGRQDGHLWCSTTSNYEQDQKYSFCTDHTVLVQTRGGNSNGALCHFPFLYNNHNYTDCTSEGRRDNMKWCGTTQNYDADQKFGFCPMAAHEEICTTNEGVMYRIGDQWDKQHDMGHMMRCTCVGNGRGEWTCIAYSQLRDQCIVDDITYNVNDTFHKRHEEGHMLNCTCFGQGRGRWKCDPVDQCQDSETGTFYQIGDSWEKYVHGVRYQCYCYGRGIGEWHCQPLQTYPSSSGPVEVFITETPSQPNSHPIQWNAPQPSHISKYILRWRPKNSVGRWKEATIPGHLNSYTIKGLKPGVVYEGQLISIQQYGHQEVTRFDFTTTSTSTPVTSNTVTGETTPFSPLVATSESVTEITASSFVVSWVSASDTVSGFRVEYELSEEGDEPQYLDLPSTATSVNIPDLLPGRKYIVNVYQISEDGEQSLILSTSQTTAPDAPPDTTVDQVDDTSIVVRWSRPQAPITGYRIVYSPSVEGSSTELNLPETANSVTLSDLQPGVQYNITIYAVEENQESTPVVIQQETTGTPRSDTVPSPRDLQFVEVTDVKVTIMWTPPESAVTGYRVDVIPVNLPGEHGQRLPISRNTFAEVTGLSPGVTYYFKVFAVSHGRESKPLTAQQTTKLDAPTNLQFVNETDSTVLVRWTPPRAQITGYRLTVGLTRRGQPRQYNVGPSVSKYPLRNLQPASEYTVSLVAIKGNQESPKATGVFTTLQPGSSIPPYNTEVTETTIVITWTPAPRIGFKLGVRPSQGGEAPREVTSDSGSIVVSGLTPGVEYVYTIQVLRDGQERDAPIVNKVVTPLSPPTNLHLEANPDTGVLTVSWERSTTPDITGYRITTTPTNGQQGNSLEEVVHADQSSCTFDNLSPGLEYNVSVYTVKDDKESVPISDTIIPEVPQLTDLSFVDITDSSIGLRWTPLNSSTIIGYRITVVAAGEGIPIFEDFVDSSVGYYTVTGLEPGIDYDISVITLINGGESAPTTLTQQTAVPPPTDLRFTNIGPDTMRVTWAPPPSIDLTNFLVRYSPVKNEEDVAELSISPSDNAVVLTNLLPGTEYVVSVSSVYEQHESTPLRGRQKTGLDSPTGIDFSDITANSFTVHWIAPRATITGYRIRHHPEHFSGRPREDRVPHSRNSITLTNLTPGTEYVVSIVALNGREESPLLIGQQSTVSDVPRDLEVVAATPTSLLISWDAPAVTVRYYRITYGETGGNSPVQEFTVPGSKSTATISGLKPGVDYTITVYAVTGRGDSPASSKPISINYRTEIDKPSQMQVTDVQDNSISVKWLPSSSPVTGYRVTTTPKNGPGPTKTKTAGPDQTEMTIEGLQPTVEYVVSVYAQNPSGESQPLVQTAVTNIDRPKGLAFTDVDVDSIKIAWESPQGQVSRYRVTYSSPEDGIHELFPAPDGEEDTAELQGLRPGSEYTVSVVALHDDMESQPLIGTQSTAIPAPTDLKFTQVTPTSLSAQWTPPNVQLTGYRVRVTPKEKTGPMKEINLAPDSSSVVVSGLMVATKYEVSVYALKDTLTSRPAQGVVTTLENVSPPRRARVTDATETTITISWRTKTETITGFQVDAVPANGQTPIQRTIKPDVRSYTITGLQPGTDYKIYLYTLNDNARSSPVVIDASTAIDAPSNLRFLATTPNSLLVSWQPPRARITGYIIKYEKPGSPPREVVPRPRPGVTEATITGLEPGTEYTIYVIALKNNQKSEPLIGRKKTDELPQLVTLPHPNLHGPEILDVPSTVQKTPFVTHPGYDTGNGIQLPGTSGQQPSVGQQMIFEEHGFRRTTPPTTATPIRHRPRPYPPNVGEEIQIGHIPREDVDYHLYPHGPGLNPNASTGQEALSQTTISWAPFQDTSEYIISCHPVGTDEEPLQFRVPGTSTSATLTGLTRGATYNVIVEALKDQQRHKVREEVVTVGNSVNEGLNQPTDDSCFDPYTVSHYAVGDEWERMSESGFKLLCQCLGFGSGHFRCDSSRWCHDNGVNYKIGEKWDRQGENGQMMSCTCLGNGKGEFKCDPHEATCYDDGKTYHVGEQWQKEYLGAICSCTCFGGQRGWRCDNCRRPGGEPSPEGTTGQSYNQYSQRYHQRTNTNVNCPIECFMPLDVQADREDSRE
UniProt P01106: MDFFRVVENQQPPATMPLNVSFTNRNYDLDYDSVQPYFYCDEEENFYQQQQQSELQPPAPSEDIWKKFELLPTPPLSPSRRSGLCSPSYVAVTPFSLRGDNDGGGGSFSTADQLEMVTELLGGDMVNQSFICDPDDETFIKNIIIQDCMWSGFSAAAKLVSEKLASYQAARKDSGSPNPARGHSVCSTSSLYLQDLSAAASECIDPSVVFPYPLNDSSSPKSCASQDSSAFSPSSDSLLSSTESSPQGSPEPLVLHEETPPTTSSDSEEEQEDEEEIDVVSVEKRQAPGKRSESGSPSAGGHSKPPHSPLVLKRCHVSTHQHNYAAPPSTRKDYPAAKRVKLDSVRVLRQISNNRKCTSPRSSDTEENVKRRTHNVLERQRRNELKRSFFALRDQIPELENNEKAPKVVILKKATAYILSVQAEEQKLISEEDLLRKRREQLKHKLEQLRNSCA
UniProt P10275: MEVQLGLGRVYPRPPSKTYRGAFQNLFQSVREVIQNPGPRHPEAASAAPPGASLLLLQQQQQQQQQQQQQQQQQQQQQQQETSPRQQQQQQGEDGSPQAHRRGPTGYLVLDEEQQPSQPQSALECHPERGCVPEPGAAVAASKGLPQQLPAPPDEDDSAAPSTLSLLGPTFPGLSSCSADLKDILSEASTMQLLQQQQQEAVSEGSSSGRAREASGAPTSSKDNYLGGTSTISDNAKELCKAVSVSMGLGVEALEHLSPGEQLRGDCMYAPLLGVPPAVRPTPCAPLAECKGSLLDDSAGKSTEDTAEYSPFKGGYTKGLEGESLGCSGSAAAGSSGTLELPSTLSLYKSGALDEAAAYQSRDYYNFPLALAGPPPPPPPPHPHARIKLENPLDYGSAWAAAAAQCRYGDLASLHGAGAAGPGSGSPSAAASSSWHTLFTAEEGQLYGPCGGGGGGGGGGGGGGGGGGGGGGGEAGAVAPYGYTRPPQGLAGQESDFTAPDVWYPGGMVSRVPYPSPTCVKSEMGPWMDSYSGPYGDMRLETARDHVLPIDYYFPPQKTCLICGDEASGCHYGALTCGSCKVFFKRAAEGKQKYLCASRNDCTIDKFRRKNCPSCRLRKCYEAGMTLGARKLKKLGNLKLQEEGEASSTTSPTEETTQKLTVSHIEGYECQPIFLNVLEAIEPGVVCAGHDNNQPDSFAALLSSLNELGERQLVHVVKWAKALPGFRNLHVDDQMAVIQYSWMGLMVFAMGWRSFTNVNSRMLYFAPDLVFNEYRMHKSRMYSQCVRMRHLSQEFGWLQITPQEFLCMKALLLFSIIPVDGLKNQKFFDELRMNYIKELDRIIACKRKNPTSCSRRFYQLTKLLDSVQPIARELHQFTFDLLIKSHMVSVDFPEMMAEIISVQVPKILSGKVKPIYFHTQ

Where two headings read alike, the source gives them in different places. These are yes or no findings as the source states them, for the method shown. In cells and extracts the contact can be indirect. Some results given as binding are weak or reduced against the parent protein; the word gives no strength.

For the substance “androgen receptor (AR), endogenous, isoforms not told apart (from UniProt P10275 1-920)”, the binding result in assay [1] is recorded as “binds”.

As to “androgen receptor isoform AR-A (N-terminally truncated), endogenous (from UniProt P10275 188-920)”, the binding result is given as “binds” in assay [2] and “no binding” in assay [3].

In the case of “androgen receptor isoform AR-B (full length), endogenous (from UniProt P10275 1-920)”, the binding result in assay [3] is “binds”.

For “cMYC, endogenous (from UniProt P01106 1-454)”, the binding entry in assay [1] and in assay [3] was “binds” in each case.

As for “fibronectin (FN1), endogenous (from UniProt P02751 32-2477)”, the binding entry is “binds weakly” in assay [4], “binds” in assay [5] and “binds” in assay [2].

The record behind these values is doi:10.1101/2023.02.23.529660.
